This is one part of the list.
compound: CN1CC[C@H](c2c(O)cc(O)c3c(=O)cc(-c4ccccc4Cl)oc23)[C@H](O)C1 [alvocidib]; assay: log2 fold change, soluble protein after heating vs DMSO (PISA); higher = thermal stabilisation; K562 cells, 10 uM, 30 min; active = over 0.2 and 3.5 SD of the protein, either way, in both replicates (recomputed)
Outline: (§1)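 K562 cells at 2×10^6 cells/mL were exposed to 10 μM compound for 30 min, then aliquots were heated for 3 min across 48°C-58°C, pooled, and extracted in PBS containing 0.5% NP-40 at 4°C. The supernatant after 21,000xg for 90 min was taken as soluble protein and measured by TMTpro 16plex LC-MS/MS with channel sums equalised. Thermal stability is reported relative to control samples, with values from duplicates. Fold changes are given on a log2 scale.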

Chains of the proteins cited; added tags and fusions are not shown. Lines headed by an entry give the natural chain unless they say otherwise; changes in a name come on top.
UniProt P02675: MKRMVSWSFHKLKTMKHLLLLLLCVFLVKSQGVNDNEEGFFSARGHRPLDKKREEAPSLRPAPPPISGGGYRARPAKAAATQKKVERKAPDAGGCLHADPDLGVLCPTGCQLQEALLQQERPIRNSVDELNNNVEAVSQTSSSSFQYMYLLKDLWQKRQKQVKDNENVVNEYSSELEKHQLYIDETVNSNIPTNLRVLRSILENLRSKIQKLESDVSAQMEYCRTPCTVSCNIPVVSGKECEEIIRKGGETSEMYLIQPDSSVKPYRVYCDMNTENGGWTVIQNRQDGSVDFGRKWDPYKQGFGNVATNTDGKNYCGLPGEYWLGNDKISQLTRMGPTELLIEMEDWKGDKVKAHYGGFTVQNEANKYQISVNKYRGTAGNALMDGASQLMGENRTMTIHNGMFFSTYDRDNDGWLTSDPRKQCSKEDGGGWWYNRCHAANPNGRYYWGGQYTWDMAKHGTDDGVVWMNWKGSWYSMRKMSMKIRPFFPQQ
UniProt Q9NYF3: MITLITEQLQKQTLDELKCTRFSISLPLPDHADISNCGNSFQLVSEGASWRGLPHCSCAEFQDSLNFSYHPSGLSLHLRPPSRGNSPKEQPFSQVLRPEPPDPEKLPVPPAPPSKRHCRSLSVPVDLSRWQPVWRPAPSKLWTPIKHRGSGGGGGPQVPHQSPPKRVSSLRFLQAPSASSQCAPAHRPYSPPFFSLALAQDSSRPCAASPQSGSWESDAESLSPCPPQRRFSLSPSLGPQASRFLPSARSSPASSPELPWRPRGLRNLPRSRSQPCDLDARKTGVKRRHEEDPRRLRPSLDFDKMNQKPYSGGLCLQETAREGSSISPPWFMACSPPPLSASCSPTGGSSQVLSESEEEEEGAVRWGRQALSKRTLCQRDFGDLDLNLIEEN
UniProt Q96CD0: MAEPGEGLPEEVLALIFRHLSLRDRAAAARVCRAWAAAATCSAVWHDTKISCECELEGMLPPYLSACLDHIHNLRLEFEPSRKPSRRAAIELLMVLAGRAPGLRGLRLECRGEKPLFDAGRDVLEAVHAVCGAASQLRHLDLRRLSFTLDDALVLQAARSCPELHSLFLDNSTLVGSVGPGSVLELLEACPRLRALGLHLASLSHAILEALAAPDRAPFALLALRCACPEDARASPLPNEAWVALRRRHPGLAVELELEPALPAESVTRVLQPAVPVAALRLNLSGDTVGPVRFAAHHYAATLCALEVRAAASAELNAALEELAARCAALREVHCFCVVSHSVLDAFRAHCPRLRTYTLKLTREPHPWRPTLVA
UniProt Q86WN1: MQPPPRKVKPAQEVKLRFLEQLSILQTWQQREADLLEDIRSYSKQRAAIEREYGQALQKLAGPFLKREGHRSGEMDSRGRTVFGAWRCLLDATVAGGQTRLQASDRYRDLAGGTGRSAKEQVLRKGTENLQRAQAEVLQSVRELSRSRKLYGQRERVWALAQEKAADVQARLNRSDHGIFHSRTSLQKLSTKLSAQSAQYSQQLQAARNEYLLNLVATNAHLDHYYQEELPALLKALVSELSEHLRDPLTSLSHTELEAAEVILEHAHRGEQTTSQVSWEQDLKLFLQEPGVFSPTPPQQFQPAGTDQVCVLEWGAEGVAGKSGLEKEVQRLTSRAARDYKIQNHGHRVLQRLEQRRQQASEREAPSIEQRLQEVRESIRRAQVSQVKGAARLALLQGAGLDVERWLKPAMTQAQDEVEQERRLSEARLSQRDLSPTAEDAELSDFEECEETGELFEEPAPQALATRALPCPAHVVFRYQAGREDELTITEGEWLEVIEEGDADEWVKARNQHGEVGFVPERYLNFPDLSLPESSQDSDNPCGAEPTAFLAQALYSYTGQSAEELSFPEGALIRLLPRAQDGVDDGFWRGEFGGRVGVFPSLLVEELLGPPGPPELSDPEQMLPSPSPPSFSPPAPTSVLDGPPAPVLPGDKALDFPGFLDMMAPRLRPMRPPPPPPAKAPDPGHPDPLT
UniProt Q96KR6: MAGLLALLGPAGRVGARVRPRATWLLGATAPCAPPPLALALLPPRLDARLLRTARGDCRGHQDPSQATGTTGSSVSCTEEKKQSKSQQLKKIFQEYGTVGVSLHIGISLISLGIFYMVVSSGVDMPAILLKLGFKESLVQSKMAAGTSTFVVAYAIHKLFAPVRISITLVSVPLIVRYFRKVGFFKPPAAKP
UniProt Q9Y2H6: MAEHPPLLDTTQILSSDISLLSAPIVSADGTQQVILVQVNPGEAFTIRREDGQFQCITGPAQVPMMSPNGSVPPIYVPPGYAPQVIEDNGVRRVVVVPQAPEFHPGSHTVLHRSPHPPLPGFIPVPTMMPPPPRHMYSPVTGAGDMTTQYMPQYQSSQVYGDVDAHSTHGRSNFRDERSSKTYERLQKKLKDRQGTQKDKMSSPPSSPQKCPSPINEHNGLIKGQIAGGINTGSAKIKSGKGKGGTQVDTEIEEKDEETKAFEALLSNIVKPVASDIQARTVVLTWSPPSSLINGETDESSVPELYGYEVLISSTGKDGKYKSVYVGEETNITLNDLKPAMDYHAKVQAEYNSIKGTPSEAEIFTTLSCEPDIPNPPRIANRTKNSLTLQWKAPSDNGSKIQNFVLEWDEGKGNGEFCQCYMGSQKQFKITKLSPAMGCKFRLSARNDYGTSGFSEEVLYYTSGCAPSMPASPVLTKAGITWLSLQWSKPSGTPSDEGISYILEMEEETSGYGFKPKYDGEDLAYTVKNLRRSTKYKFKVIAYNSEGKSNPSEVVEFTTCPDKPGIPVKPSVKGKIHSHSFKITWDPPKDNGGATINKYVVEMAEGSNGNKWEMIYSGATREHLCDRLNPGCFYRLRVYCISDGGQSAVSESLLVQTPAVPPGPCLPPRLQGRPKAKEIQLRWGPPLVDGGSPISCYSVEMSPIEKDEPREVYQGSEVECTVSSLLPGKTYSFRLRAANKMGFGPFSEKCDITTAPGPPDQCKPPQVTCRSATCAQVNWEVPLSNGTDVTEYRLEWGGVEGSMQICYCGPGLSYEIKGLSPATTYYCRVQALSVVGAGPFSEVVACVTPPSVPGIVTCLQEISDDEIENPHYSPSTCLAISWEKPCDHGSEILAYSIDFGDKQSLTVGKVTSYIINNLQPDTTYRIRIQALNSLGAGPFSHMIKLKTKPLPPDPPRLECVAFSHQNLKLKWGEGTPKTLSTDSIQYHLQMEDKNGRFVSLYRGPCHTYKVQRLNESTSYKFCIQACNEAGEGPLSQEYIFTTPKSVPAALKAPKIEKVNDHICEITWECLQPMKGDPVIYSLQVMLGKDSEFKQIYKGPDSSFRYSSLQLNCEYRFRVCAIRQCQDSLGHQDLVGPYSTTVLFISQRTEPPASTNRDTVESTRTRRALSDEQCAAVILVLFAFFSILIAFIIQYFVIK
UniProt Q02790: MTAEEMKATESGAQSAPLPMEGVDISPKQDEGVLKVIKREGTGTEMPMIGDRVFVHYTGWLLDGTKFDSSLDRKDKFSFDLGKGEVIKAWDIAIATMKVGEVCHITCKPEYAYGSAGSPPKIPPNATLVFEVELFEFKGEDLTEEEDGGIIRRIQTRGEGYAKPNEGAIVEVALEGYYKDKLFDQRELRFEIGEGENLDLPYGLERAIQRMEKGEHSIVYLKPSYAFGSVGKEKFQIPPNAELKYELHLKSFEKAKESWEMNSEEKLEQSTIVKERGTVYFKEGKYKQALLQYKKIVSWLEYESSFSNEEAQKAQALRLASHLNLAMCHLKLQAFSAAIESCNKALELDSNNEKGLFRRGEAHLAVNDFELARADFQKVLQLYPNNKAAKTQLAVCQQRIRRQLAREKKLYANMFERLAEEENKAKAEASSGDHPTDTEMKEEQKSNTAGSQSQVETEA
UniProt Q6P3S6: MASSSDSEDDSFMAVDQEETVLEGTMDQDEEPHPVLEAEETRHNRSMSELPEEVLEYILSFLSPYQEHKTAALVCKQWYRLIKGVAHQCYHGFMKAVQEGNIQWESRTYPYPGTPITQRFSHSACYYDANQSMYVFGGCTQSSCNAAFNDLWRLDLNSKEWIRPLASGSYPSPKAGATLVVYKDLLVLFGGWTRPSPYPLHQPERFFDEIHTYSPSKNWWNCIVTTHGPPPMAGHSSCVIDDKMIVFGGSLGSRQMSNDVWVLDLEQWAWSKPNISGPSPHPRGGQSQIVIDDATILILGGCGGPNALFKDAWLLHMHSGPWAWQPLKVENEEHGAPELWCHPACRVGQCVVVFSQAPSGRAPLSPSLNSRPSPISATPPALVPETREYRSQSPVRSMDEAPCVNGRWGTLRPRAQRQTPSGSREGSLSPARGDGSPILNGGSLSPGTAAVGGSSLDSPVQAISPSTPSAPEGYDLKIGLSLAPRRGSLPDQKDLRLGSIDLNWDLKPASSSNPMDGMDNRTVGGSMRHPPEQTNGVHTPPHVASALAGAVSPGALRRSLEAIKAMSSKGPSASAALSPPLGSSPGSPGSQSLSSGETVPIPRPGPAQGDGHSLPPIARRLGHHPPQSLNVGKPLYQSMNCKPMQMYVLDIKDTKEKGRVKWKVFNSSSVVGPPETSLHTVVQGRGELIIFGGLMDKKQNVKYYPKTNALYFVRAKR
UniProt Q53R41: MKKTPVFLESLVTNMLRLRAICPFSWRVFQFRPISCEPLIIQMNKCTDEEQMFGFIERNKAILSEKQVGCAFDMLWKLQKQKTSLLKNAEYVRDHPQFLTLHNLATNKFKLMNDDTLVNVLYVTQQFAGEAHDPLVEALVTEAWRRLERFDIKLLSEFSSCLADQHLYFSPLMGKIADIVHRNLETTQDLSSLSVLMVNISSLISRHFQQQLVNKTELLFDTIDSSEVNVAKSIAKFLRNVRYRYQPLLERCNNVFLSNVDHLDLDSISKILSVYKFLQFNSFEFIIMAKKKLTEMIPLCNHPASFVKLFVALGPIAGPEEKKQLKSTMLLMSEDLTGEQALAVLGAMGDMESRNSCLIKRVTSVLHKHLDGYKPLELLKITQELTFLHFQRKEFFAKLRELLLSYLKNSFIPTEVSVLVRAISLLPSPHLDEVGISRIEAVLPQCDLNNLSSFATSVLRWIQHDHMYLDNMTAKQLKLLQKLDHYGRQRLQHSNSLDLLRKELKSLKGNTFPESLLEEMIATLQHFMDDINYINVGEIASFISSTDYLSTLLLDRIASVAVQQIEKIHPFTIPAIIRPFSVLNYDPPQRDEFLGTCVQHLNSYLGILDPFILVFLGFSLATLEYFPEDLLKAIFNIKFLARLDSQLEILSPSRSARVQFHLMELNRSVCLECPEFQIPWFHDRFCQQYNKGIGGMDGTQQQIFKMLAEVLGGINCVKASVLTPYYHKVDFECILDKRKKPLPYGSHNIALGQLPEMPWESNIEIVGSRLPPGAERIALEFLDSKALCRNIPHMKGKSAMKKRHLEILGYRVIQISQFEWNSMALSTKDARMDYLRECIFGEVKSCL
UniProt Q9Y3D6: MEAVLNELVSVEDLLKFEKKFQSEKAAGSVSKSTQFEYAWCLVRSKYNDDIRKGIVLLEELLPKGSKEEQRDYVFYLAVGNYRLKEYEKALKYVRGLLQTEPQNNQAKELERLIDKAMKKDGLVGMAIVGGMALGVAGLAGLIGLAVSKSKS
UniProt P37268: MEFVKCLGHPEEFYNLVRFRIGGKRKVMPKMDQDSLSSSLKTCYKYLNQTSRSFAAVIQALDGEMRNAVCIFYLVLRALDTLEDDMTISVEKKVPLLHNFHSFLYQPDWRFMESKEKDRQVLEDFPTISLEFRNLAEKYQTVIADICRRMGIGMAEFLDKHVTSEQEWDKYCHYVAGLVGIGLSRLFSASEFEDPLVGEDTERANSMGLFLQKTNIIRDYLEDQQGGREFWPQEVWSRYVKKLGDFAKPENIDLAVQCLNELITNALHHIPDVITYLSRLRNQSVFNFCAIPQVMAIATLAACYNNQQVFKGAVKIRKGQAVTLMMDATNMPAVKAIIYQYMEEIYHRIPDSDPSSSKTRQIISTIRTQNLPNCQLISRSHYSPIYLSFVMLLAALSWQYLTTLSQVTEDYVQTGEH
UniProt O43427: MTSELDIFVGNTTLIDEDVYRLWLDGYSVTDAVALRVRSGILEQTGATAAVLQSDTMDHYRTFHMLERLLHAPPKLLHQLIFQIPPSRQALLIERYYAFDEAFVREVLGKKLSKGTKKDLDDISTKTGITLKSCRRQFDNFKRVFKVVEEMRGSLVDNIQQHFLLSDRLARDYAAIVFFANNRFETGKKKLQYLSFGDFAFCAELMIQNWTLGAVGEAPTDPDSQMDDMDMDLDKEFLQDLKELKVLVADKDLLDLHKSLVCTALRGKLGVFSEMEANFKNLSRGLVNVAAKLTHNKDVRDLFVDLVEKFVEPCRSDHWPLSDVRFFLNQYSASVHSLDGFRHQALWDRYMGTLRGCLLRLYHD
UniProt Q9Y324: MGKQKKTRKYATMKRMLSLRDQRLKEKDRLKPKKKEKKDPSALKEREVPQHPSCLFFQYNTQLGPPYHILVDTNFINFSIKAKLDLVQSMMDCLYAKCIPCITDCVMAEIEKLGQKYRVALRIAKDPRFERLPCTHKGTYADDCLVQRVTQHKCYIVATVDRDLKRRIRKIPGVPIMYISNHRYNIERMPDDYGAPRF

log2 fold change, inactive:
FGB (UniProt P02675) -0.013
FAM53C (UniProt Q9NYF3) -0.206
FBXO38 (UniProt Q6PIJ6) -0.154
FBXL8 (UniProt Q96CD0) -0.023
FCHSD1 (UniProt Q86WN1) -0.187
FAM210B (UniProt Q96KR6) -0.041

compound: CN1CCc2c(c3ccccc3n2Cc2ccc(C(=O)NO)cc2)C1 [Tubastatin A]; assay: as above
Outline: as §1

log2 fold change, inactive:
FGB (UniProt P02675) -0.039
FNDC3A (UniProt Q9Y2H6) -0.027
FKBP4 (UniProt Q02790) -0.009
FBXO42 (UniProt Q6P3S6) 0
FASTKD1 (UniProt Q53R41) 0.037
FAM53C (UniProt Q9NYF3) 0.245
FCHO1 (UniProt O14526) 0.007
FIS1 (UniProt Q9Y3D6) -0.021
FDFT1 (UniProt P37268) 0.012
FBXO38 (UniProt Q6PIJ6) 0.15
FECH isoform 2 (UniProt P22830) -0.12
FANCD2 isoform 1 (UniProt Q9BXW9) -0.053
FAM3A (UniProt P98173) 0.045
FBXL8 (UniProt Q96CD0) 0.273
FIBP (UniProt O43427) 0.07
FCF1 (UniProt Q9Y324) 0.07
FBXO9 (UniProt Q9UK97) -0.003

— the supplement of paper PMC10849652
